Experiment: peptide synthesis
Conditions: late stage modification step

Row | Substance | step yield
1 | 8,20-bis-[4-(1-pyrrolyl)-benzyl]-5,11,17,23-tetraisobutyl-2,4,10,14,16,22-hexamethyl-1,7,13,19-tetraoxa-4,10,16,22-tetraaza-cyclotetracosan-6,9,12,18,21,24-hexaone | 22% of theory
2 | 8,20-dibenzyl-5,11,17,23-tetraisobutyl-2,4,10,14,16,22-hexamethyl-1,7,13,19-tetraoxa-4,10,16,22-tetraaza-cyclotetracosan-6,9,12,18,21,24-hexaone | 34 to 41% of theory
3 | 8-(4-aminobenzyl)-20-(2-aminobenzyl)-5,11,17,23-tetraisobutyl-2,4,10,14,16,22-hexamethyl-1,7,13,19-tetraoxa-4,10,16,22-tetraazatetracosan-6,9,12,18,21,24-hexaone | 11%
